These results are taken from paper PMC7819943, “Rice protein-binding microarrays: a tool to detect cis-acting elements near promoter regions in rice”.

The other results are listed elsewhere or left out.

The assay concerns the target T1, OsSMF1 (Oryza sativa, UniProt Q6ZLB0 1-436).
T1 sequence: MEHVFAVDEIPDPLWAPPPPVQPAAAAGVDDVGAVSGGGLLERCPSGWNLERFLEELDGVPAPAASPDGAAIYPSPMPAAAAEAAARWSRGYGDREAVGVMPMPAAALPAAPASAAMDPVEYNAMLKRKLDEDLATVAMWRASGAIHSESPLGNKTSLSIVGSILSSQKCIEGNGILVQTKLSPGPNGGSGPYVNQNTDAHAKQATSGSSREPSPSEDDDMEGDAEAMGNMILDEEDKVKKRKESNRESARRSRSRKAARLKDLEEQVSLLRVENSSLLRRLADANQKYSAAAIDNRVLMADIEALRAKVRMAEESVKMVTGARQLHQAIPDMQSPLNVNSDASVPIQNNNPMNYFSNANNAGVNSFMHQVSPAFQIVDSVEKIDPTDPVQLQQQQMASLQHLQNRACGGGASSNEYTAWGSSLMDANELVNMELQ
The assay is described as follows: protein-binding microarray (RPBM); PBS, 2% BSA, 51.3 ng/ul salmon testes DNA, 50 uM zinc acetate, 200 nM TF, 25 C, 1 h; high values mean tight binding. As to conditions: protein: recombinant; tags: N-terminal polyhistidine and DsRed monomer fusion (pET32a); chain copies: 2; label: CyDye5-dUTP incorporated in the synthesized complementary strand; 3' TTTTT single-stranded linker to array surface; dsDNA, one strand shown. The method in brief:
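Transcription factors were each fused at the N-terminus to a polyhistidine tag plus DsRed and expressed in E. coli BL21-CodonPlus before Ni–NTA purification. Binding to a double-stranded custom Agilent array was carried out with 200 nM protein at 25 °C for 1 h in PBS, 2% BSA, salmon testes DNA and 50 µM zinc acetate. The binding signal is per-feature fluorescence intensity, in arbitrary units, on an Axon 4000B scanner.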
Regarding “GGCCGTGATACGACATTTTGCCACGAGGGCCCAATATGGACGGAGTCACCTAGTGCAG”, the binding signal is 4440 fluorescence intensity (a.u.).
The figure for “GCCCCACCGCACGTGTCACTTGAACCTGTACTACGTACTACGGAGTCACCTAGTGCAG” is 4690 fluorescence intensity (a.u.); for “GAACTCTAGATTTTGATCCCATGAGTCATGAAAAGCACTCCGGAGTCACCTAGTGCAG” it is 6170 fluorescence intensity (a.u.); for “AGATATGAGTTTTCTTTATGGGTTACTCCTACCTATTAGGCGGAGTCACCTAGTGCAG” it is 23300 fluorescence intensity (a.u.).
The figure for “CCGTCGCCGCGCTGCGCCGGCGAGCGCCACGGGAGCAGCACGGAGTCACCTAGTGCAG” is 4210 fluorescence intensity (a.u.).
The figure for “TGCCCCATCCATATATTGCATACATACACACATGCTAGCTCGGAGTCACCTAGTGCAG” is 3670 fluorescence intensity (a.u.); for “TGCCATATCGCTGCAAAGTTGAAAGTTTTGTTTCAAGTTCCGGAGTCACCTAGTGCAG” it is 5270 fluorescence intensity (a.u.); for “ATGGCGCCCATATATGCCACCGAGTCGTCCGCGGCTATCTCGGAGTCACCTAGTGCAG” it is 3920 fluorescence intensity (a.u.).
“GATATGATATTGTAAGCTTATAAGATTTGATATGCATTAACGGAGTCACCTAGTGCAG”: the binding signal was 25500 fluorescence intensity (a.u.).
The figure for “TTTGGTTACATTACGGACACTTTTCAAGTTATCAGGTGTGCGGAGTCACCTAGTGCAG” is 4420 fluorescence intensity (a.u.).
The figure for “GTTCATATTAAAGCCCACGTAAAATAATTCTCAGCCCAACCGGAGTCACCTAGTGCAG” is 3460 fluorescence intensity (a.u.); for “TCCGTGACACCGTGACAGCGTGGACGTTCATAACCTTCCACGGAGTCACCTAGTGCAG” it is 9010 fluorescence intensity (a.u.).
The figure for “ACGATGTGTAGTGTACATGTACACATATGGAGAGAGAGAGCGGAGTCACCTAGTGCAG” is 4060 fluorescence intensity (a.u.); for “TCACCGTTGGATTTGACCACAGTGACCCGTGACGTCTTTGCGGAGTCACCTAGTGCAG” it is 3560 fluorescence intensity (a.u.); for “GAATCAATACCAGTATCACTTGTGCTAATAGTACTAGAGGCGGAGTCACCTAGTGCAG” it is 21800 fluorescence intensity (a.u.).
With “GAAGATCATGTCAAACACCTCCACGTAGTCGCCACGTTCACGGAGTCACCTAGTGCAG”, the binding signal is 5580 fluorescence intensity (a.u.).
As to “TTTCACATGAGATTTATCACATGTGAAGAAAAGGGGAAATCGGAGTCACCTAGTGCAG”, the binding signal is 24000 fluorescence intensity (a.u.).
The figure for “CTTCACTTCAGCTCACACCGGACAATTTCTAACGTTAGCTCGGAGTCACCTAGTGCAG” is 3760 fluorescence intensity (a.u.); for “TAGTACAAGTATATTTACGCGGTCTTTCGGTCTTTGTCCTCGGAGTCACCTAGTGCAG” it is 3700 fluorescence intensity (a.u.).
Turning to “TTATCAGTTGATGATGTGATCAAGATTAGATGCAACATCCCGGAGTCACCTAGTGCAG”, the binding signal is 3780 fluorescence intensity (a.u.).
For the sequence “AATGTGAGAAAGATGATGTAACATCCTTGTATGTTAAGCTCGGAGTCACCTAGTGCAG”, the binding signal was 3220 fluorescence intensity (a.u.).
The figure for “CCTTGTCCCTTGAACCTCATAGATGGGAATCATTATCAATCGGAGTCACCTAGTGCAG” is 19700 fluorescence intensity (a.u.); for “CTTCCTCTGAACCCACTGCAAGTGTGACAACACGCACCAGCGGAGTCACCTAGTGCAG” it is 4600 fluorescence intensity (a.u.).
The figure for “CAAGTAGCGGCGTACGCTGCCACGCGGGGTGACAGCTTTGCGGAGTCACCTAGTGCAG” is 5180 fluorescence intensity (a.u.).
The figure for “TCATATTTGAGTGATGTGTCGGAGTTGTTTTCTATTGCGCCGGAGTCACCTAGTGCAG” is 5630 fluorescence intensity (a.u.).
Take “TGCGGGAGACGCGGCGCATGCGCGGGCGTGGCCGACGTGGCGGAGTCACCTAGTGCAG”: the binding signal was 13000 fluorescence intensity (a.u.).
As to “CGCACGATGATCATGTGTTGGTGTTGGCATGCAATGCAACCGGAGTCACCTAGTGCAG”, the binding signal was 3780 fluorescence intensity (a.u.).
Consider “AGAAACCAAACTGGTTTGTTGTTCGTGTGGACACTGGACACGGAGTCACCTAGTGCAG”, for which the binding signal is 3260 fluorescence intensity (a.u.).
The figure for “CGTCGTGCCTACGGGCCGTTCGCGTGTCGTGTCGGCCCAACGGAGTCACCTAGTGCAG” is 3850 fluorescence intensity (a.u.); for “GTTCAATATACTAATTAGTGTGACATGGCTCTCATCATATCGGAGTCACCTAGTGCAG” it is 4420 fluorescence intensity (a.u.).
On to “TCCTTTTATTCCCATCACTCCATTCATTGTTCTTGTTCTTCGGAGTCACCTAGTGCAG”, for which the binding signal is 3190 fluorescence intensity (a.u.).
The figure for “GGCCCATATGTTGGCGGACGGCCTCGCGCAGGTCGCGACACGGAGTCACCTAGTGCAG” is 3150 fluorescence intensity (a.u.); for “CCTCCTCAACGCCGCCACCTCATCCGTCCATACAGCGCCGCGGAGTCACCTAGTGCAG” it is 7110 fluorescence intensity (a.u.); for “TAAAATTAGATGACGCACATTGACTAATATAACAATTTGGCGGAGTCACCTAGTGCAG” it is 3800 fluorescence intensity (a.u.).
The figure for “TGGTCACTGCAGCAGGTTCAGGACAAAGCAACCTGTTTCTCGGAGTCACCTAGTGCAG” is 3600 fluorescence intensity (a.u.).
With “CATGTCCGCCTACATCCTCGTTCTCGTCATCTTGGTCTGCCGGAGTCACCTAGTGCAG”, the binding signal was 3310 fluorescence intensity (a.u.).
The figure for “AAAGGATAGCGACGTGACGTGACGCACGCACGCCGCCAGCCGGAGTCACCTAGTGCAG” is 8750 fluorescence intensity (a.u.); for “AGCTATGTTTTGTATACTGATGAGTAAGCTGATTGCGATACGGAGTCACCTAGTGCAG” it is 3560 fluorescence intensity (a.u.).
The figure for “AATCACACGAGAGAGACACTGAAGTGACACGCTGGCAGGTCGGAGTCACCTAGTGCAG” is 11200 fluorescence intensity (a.u.); for “GGCGGCGGCTGGCGAGCTCCCGCTTCCCTACCTGCTTCCCCGGAGTCACCTAGTGCAG” it is 3650 fluorescence intensity (a.u.); for “CGGGGCTTGCAAGGCACGCGCTCATGTCGTCAGATCGGCGCGGAGTCACCTAGTGCAG” it is 3410 fluorescence intensity (a.u.).
With “TTCTAGCCAGGCCGAATGGCCGAGCGGATGACGCGGCCACCGGAGTCACCTAGTGCAG”, the binding signal was 8220 fluorescence intensity (a.u.).
